Values quoted from earlier work as cited in patent publication US20240142382A1, “METHODS AND COMPOSITIONS FOR CALIBRATED LABEL-FREE SURFACE-ENHANCED RAMAN SPECTROSCOPY” (Virginia Tech Intellectual Properties, Inc., priority 2021, published 2024).

Tested on: MDA-MB-231
Conditions: MDA-MB-231 triple-negative breast cancer cells; read-out: half-maximal inhibition concentration (IC50); cited from earlier work

CC(=O)O[C@H]1C(=O)[C@@]2(C)[C@H]([C@H](OC(=O)c3ccccc3)[C@]3(O)C[C@H](OC(=O)[C@H](O)[C@@H](NC(=O)c4ccccc4)c4ccccc4)C(C)=C1C3(C)C)[C@]1(OC(C)=O)CO[C@@H]1C[C@@H]2O [PTX, paclitaxel]
IC50: 0.015 µM
